Measured values reported in the supplement of paper PMC3334620.
Whole data set: some 33,000 sequences, median “E-score (-0.5 to 0.5)” near -0.0059, cut for the highest 2% near 0.26. Some of the results follow.

biological target: T1, Cin5 (UniProt P40917); assay: PBM E-score (8-mer binding enrichment) (E-score (-0.5 to 0.5)); higher = stronger / more preferred TF binding; settings: protein concentration: 100 nM; construct: GST-full length
T1 sequence: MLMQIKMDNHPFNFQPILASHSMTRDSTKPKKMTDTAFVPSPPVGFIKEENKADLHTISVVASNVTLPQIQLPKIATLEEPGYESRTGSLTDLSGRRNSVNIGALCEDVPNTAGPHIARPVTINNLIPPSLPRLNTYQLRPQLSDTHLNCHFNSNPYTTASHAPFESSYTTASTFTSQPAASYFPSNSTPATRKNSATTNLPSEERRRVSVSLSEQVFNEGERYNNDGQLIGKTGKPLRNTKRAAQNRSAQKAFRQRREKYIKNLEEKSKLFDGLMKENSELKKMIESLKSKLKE
Procedure, shortened: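 PURExpress in vitro transcription/translation supplied GST-tagged yeast transcription factors, either full-length or DNA-binding domain. Applied at about 100-200 nM to universal all-10-mer Agilent arrays double-stranded by primer extension, the bound protein was detected with fluorescent anti-GST. E-scores, modified Wilcoxon-Mann-Whitney statistics, were given by the Universal PBM Analysis Suite to ungapped eight-base words pooled with their reverse complements after masliner normalisation.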

| Sequence | PBM E-score |
| --- | --- |
| GACTAGCA | -0.123 |
| AATCGAAT | 0.237 |
| GCTGGATA | -0.0319 |
| ATCTGCAC | 0.0151 |
| CATGTAGA | 0.0846 |
| GACTTTCC | -0.107 |
| AGACGATG | -0.00995 |
| CGTGACAG | -0.179 |
| CACCACAC | 0.00236 |
| ATCCGACA | -0.119 |
| AGCGCGGG | 0.156 |
| CAACATTG | 0.111 |
| CCGAAGCA | 0.0749 |
| AACCGTCC | -0.107 |
| ATTAAGAG | -0.0971 |
| ACCAGCCC | -0.151 |
| GATGCCAC | -0.105 |
| GGTGTATA | -0.256 |
| AGTTTCGC | 0.0693 |
| ACCTTAAC | 0.0676 |
| GATGCCTA | -0.229 |
| GCGGTGCC | -0.28 |
| GACTTACA | -0.121 |
| CACTAGTA | 0.165 |
| ACCTATAA | -0.0275 |

| Sequence | PBM E-score |
| --- | --- |
| AACAGATA | 0.057 |
| CTGCTGTC | -0.0623 |
| ATCGAGTC | 0.0696 |
| TAAATCGA | 0.0908 |
| ACCAGGCC | -0.134 |
| CAGTGGGG | -0.231 |
| GAGGAAAC | -0.0442 |
| CCCGCTAA | -0.127 |
| CATACATC | 0.127 |
| CAAAGCCA | -0.0284 |
| GGGTACCC | -0.418 |
| CCCAGCAC | -0.0984 |
| AATACTGG | 0.129 |
| GCGTCCTA | -0.221 |
| CCCGGCCG | -0.199 |
| CGTAAAGA | -0.149 |
| CAGACCCA | -0.0333 |
| CTGCTAGA | -0.136 |
| GATTGCGA | 0.0955 |
| CATATCAG | 0.0807 |
| AGATTCTG | -0.141 |
| CGGTTGAC | -0.0501 |
| CAAGCTAA | 0.00309 |
| ACGCCAGA | -0.124 |
| AGACTCCG | -0.121 |

Seven records drawn at random from the list so far, as already listed:

| Sequence | PBM E-score |
| --- | --- |
| CCCAGCAC | -0.0984 |
| GGGTACCC | -0.418 |
| CCCGGCCG | -0.199 |
| CTGCTAGA | -0.136 |
| ACCAGGCC | -0.134 |
| CATATCAG | 0.0807 |
| TAAATCGA | 0.0908 |

(next part)

| Sequence | PBM E-score |
| --- | --- |
| ATACGGGA | -0.0908 |
| CGATTGAC | 0.121 |
| CCTATATA | 0.0157 |
| ACCCGACA | 0.00507 |
| CAACTTCG | 0.112 |
| CTTCCTGA | 0.0966 |
| AGCGTCCA | -0.162 |
| AATATTTG | 0.246 |
| CGCGGTGC | -0.135 |
| AAACAGTG | 0.169 |
| AGGGGAGG | 0.0111 |
| ATCCACAT | 0.0955 |
| CGAACGAC | 0.0935 |
| CCTGACAA | -0.00087 |
| AGGCTGTC | -0.245 |
| TACGGCAA | 0.185 |
| CCAGGGTC | -0.232 |
| CCCGCATC | -0.0563 |
| GATCCGCA | 0.0421 |
| ATTCCAGG | 0.116 |
| AACCCCAA | 0.221 |
| ACCTGTAC | -0.117 |
| CCCGTCCA | -0.11 |
| AGACCTCG | -0.0891 |
| GATAAGTA | 0.0537 |

| Sequence | PBM E-score |
| --- | --- |
| GAATGGTC | -0.0653 |
| ACAATGGT | -0.0691 |
| CCATAGTC | -0.0985 |
| AAGCGATT | 0.0516 |
| AGCCGACG | -0.0574 |
| TCAAGCAA | -0.0131 |
| CCGCGTGA | 0.114 |
| CTTCGGGA | -0.095 |
| CGAGATCA | 0.149 |
| CCACTCCA | -0.0551 |
| CATTGCCA | 0.0347 |
| ACTTCGTG | 0.0515 |
| TATCGTCA | 0.0394 |
| CGAAAATC | 0.111 |
| AGCTACAT | -0.0113 |
| ACGCGGCT | -0.0786 |
| AGTACCTG | -0.042 |
| CCATTCTA | 0.0523 |
| ACACCGGA | -0.0407 |
| GCCTGCGC | -0.224 |
| GACGTAAA | 0.103 |
| ACTTTCAA | 0.0815 |
| GTAACCAA | 0.206 |
| GATAAGAC | 0.0478 |
| CAGTGAAC | 0.205 |

| Sequence | PBM E-score |
| --- | --- |
| CAGGTGTA | 0.0935 |
| GCGCGGAA | 0.192 |
| GCTGCGTA | -0.042 |
| GAGACGCA | -0.0714 |
| GTCCAATA | 0.00916 |
| GAAGGGCC | -0.29 |
| AAGAAAAT | 0.159 |
| CGCAATCA | 0.0971 |
| CAGGTACG | -0.209 |
| CTATAAGC | 0.095 |
| GAGACATC | -0.00679 |
| GACTACTA | 0.0658 |
| CAAGCGTC | -0.108 |
| AGGCGGGA | -0.0532 |
| ATGGCTAC | 0.0242 |
| CATGCGGG | -0.124 |
| GGAGAGAC | -0.0957 |
| AGCTTGTA | 0.0486 |
| ACTTAGAC | 0.0559 |
| GCCCTACA | -0.104 |
| ATAAAGAT | 0.122 |
| ACTGTAAG | 0.143 |
| ACTTAAAT | 0.105 |
| TATAGTGA | -0.0129 |
| CGCCCACC | -0.0217 |

| Sequence | PBM E-score |
| --- | --- |
| TCGTAGCA | 0.0576 |
| GTGTTAAC | -0.03 |
| ACTTAGTC | -0.0898 |
| GCATCTAA | 0.172 |
| TCTAGCAA | 0.095 |
| CGTCCTTC | 0.0493 |
| AGAAAGGC | -0.114 |
| CGTATAGA | -0.00706 |
| CACGGAAC | 0.183 |
| ATTCCGAA | 0.235 |
| CCCTATCG | -0.123 |
| ATGGGAAC | 0.0289 |
| CATCATAG | 0.144 |
| ATAGCGGG | -0.0689 |
| CCTACCAC | -0.224 |
| GGACACAA | 0.164 |
| CAGTCGCG | -0.0811 |
| ATCACTGG | 0.00769 |
| CACGTTTC | -0.0735 |
| ATGCTCAA | 0.0191 |
| ATCTTGCG | 0.0774 |
| ACGCAGTA | -0.15 |
| CTCTGCTA | -0.18 |
| CCGTGAGA | -0.182 |
| GGATGTCA | 0.198 |

| Sequence | PBM E-score |
| --- | --- |
| CTTGTAGC | 0.146 |
| ACGCGGAC | -0.151 |
| GCTGGTAC | -0.17 |
| CCACGCCA | -0.0554 |
| AGCCCCCT | -0.39 |
| GTCGTAGA | 0.0262 |
| CATCCAGA | -0.0862 |
| ACTAGCAA | 0.00926 |
| CCACACAA | 0.0874 |
| CGTGGTGA | -0.163 |
| CGGCGCGA | 0.105 |
| ACCCGATA | -0.0171 |
| AGCCCACT | -0.0711 |
| AGGATGAT | 0.257 |
| ACCGGATG | 0.0218 |
| GGCATCCC | -0.19 |
| GGCTCAGA | -0.0705 |
| CGACGCGA | -0.0541 |
| CCGGGTCG | -0.131 |
| CGGCAAGA | -0.0392 |
| ACGGTGCT | -0.123 |
| GGCACTAA | 0.0186 |
